Data as given in PubChem BioAssay AID1347076 (National Center for Advancing Translational Sciences (NCATS), 2019).
The campaign covered roughly 400,000 compounds. About 13,000 (3.2%) were called active. The shares of active, inactive and inconclusive entries below differ from those in the screen. The call rests on the fitted dose curve; in most records, active means well fitted cell-killing curve with a large enough effect; inconclusive means small, poorly fitted or top-dose-only effect, or effect the other way; inactive means flat fitted curve, though single readings scatter. A potency beside an inconclusive call is a rough fit, not a confirmed value.

Experiment: qHTS assay for MDR1-selective chemotherapeutics: Primary screen using the drug-selected MDR subline cells KB-V1; further: nearly all actives have a fitted effect of over 60% in size
Details: KB-V1 MDR cells viability, CellTiter-Glo, 72 h; activity change, negative = cytotoxicity: at 46.1 µM (top of the series)
Outline: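 Cytotoxicity toward P-gp-expressing KB-V1 cells was determined as loss of CellTiter-Glo luminescence after 72 h at 37 degrees C. Compounds were tested in quantitative HTS format across a concentration range, with curves fitted to normalized data.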
On the % scale 0 is the no-effect control and ±100 the full control effect; potency means the concentration at half of the fitted maximal effect.

| SMILES | Potency | activity change, negative = cytotoxicity |
| --- | --- | --- |
| O=C(CCc1c[nH]c2ccccc12)NCc1ccco1 | inconclusive: 11.6 µM [rising, partial curve, poor fit] | – |
| Cc1cc(C)nc(/N=c2/ssnc2Cl)c1 | – | inactive: 11% |
| CCSc1nnc(NC(=O)C2Cc3ccccc3CN2S(=O)(=O)CC)s1 (stereo unspecified) | – | inactive: 0% |
| Cc1ccc2nc(-c3ccc(NC(=O)CCS(=O)(=O)c4ccccc4)cc3)sc2c1 | – | inactive: 0.827% |
| CC1CCN(c2nc3c(cc2C#N)COC(C)(C)C3)CC1 | inconclusive: 16.4 µM [cytotoxic, single point] | – |
| CCCCn1c(-c2cccnc2)nc2cc3[nH]c(=O)c(C(C)C)nc3cc21 | – | inactive: 22.1% |
| CN(Cc1nc(-c2cnccn2)no1)CC(O)c1ccccc1 (stereo unspecified) | – | inactive: -2.16% |
| CCOC(=O)C1CCN(C(=S)Nc2cccc(C)c2)CC1 | – | inactive: -26.7% |
| Cn1c(=O)cc(SCC(=O)N2CCN(Cc3ccc4c(c3)OCO4)CC2)c2ccccc21 | inconclusive: 3.26 µM [cytotoxic, partial curve, poor fit] | – |
| O=C(NC1CCCCC1)N1CCC(c2nc(-c3ccc(S(=O)(=O)N4CCCC4)cc3)no2)CC1 | active: 2.59 µM | – |
| COc1ccc(Br)cc1CN(C)C(=O)c1cc(Cl)c2c(c1)OCCO2 | inconclusive: 7.31 µM [cytotoxic, partial curve, poor fit] | – |
| COc1ccccc1NC(=O)CN1CCN(S(=O)(=O)c2ccc(Br)cc2)CC1 | inconclusive: 1.84 µM [cytotoxic, full curve] | – |
| COc1ccc(-c2ccc3c(c2)O[C@H](CN(C)C(=O)Nc2ccccc2F)[C@@H](C)CN([C@H](C)CO)S3(=O)=O)cc1 | active: 11.6 µM | – |
| CCCN1C2CCCC1CC(NC(=O)c1ccccc1OC)C2 (stereo unspecified) | inconclusive: 0.0073 µM [cytotoxic, full curve] | – |
| COc1cccc(C(=O)CN2C3=NCCCN3c3ccccc32)c1 | – | inactive: -6.06% |
| O=C(Nc1cccc(-c2cccc(Cl)c2)c1)C1CCN(Cc2nccs2)CC1 | inconclusive: 9.2 µM [cytotoxic, partial curve] | – |
| CC1CCN(C(=O)Cn2c(SCC(=O)Nc3ccc(F)cc3)nc3ccccc32)CC1 | inconclusive: 13 µM [cytotoxic, partial curve] | – |
| CC1CCN(S(=O)(=O)c2ccc(C(=O)N3CCCC(C(F)(F)F)C3)cc2)CC1 (stereo unspecified) | inconclusive: 18.4 µM [cytotoxic, single point] | – |
| CCOc1ccccc1NC(=S)N(CCCN1CCOCC1)Cc1cn(C)c2ccccc12 | inconclusive: 1.84 µM [cytotoxic, full curve] | – |
| CS(=O)(=O)c1ccc(Cl)c(NC(=O)COC(=O)CCc2c[nH]c3ccccc23)c1 | inconclusive: 0.259 µM [rising, full curve] | – |
| COc1ccc(-c2ccc(-c3cc(=O)oc4cc(OC)c(OC)c(OC)c34)cc2)cc1OC | inconclusive: 29.1 µM [cytotoxic, single point] | – |
| Cc1cc(S(=O)(=O)Nc2ccc(O)c(Sc3nc4ccccc4s3)c2)ccc1Cl | active: 18.4 µM | – |
| O=C(NCc1ccc(OC(F)(F)F)cc1)c1cc(-c2ccccc2)nn1CC1CC(c2cccnc2)=NO1 (stereo unspecified) | active: 20.6 µM | – |

Two records picked at random from the list so far:

| SMILES | Potency | activity change, negative = cytotoxicity |
| --- | --- | --- |
| Cc1ccc2nc(-c3ccc(NC(=O)CCS(=O)(=O)c4ccccc4)cc3)sc2c1 | – | inactive: 0.827% |
| CCOc1ccccc1NC(=S)N(CCCN1CCOCC1)Cc1cn(C)c2ccccc12 | inconclusive: 1.84 µM [cytotoxic, full curve] | – |

Further structures follow:

| SMILES | Potency | activity change, negative = cytotoxicity |
| --- | --- | --- |
| O=C(Nc1cccc(C(F)(F)F)c1)Nc1ccc2snnc2c1 | inconclusive: 16.4 µM [cytotoxic, single point] | – |
| CC(=O)Oc1ccc(C(=O)Cc2ccccn2)c(O)c1 | inconclusive: 18.4 µM [rising, single point] | – |
| COc1cccc(C2=NOC(C(=O)N3CCN(Cc4ccccc4)CC3)C2)c1OC (stereo unspecified) | active: 5.8 µM | – |
| CCc1nn(CC(=O)NCCOC)c(=O)c2cc3cc(F)ccc3n12 | – | inactive: 22.7% |
| CCN(CC)C(=O)CSc1nc2cc3c(cc2c(=O)n1CCCC(=O)NCc1ccc(OC)cc1)OCO3 | inconclusive: 16.4 µM [cytotoxic, partial curve, poor fit] | – |
| Cc1ccc(CCNC(=O)CN(c2ccc(C(C)C)cc2)S(=O)(=O)c2c(C)nn(C)c2C)cc1 | – | inactive: 0.846% |
| Cc1ccc(-c2nc3c4ccccc4ccn3c2Cc2cccc(Cl)c2)cc1 | – | inactive: 0% |
| NC(=O)COC(=O)c1ccccc1Oc1ccccc1 | – | inactive: -2.49% |
| C=CCN(c1nc(C)cc(OC)n1)S(=O)(=O)c1ccc(C)cc1 | inconclusive: 3.26 µM [cytotoxic, full curve] | – |
| Brc1ccc(-c2nc(-c3ccncc3)no2)o1 | inconclusive: 32.6 µM [cytotoxic, single point] | – |
| Nc1c(C(=O)c2ccccc2)sc2nsc(SCCN3CCCC3)c12 | inconclusive: 20.6 µM [cytotoxic, single point] | – |
| CCn1c(SCC(=O)Nc2c(C)cccc2C)nnc1-c1nonc1NC(C)=O | – | inactive: -1.85% |
| CC(C)[C@H](N)c1cn([C@@H](CO)C(=O)N2CCNCC2)nn1 | inconclusive: 18.4 µM [rising, single point] | – |
| O=C(NCCCn1ccnc1)c1sc2cc([N+](=O)[O-])ccc2c1Cl | inconclusive: 29.1 µM [cytotoxic, single point] | – |
| Cc1ccc(S(=O)(=O)N2C(c3ccccc3)CC(=O)C3CN(S(=O)(=O)c4ccc(Cl)cc4)C(c4ccccc4)CC32)cc1 (stereo unspecified) | – | inactive: -30.8% |
| O=S(=O)(NCCN1CCCC1)c1ccc(Cl)cc1 | inconclusive: 20.6 µM [rising, partial curve, poor fit] | – |
| COc1ccc2c(Cl)c(-c3nnc(SCC(N)=O)n3C)sc2c1 | – | inconclusive: -4.19% |
| O=C(COn1nnc2ccccc21)NCC1CCCCC1 | inconclusive: 29.1 µM [cytotoxic, partial curve, poor fit] | – |
| CN(CCc1ccccc1)C(C(=O)Nc1ccc2c(c1)OCCO2)C1CC1 (stereo unspecified) | – | inactive: 10.7% |
| c1cc2c3c(cccc3c1)C(N1CCCCC1)=N2 | inconclusive: 29.1 µM [cytotoxic, single point] | – |
| O=C(CCC1CCCN(C(=O)CCCc2ccccc2)C1)N1CCN(c2ccccn2)CC1 (stereo unspecified) | inconclusive: 2.91 µM [cytotoxic, full curve, poor fit] | – |
| CN(C)C(=O)C1Cc2ccccc2CN1S(=O)(=O)c1ccc(F)cc1 (stereo unspecified) | – | inactive: 5.97% |
| Cc1cc(Oc2ccc(=O)n(C)n2)nc(SCC(N)=O)n1 | inconclusive: 32.6 µM [rising, single point] | – |
